Laboratory results from patent US20240327522A1 (Genentech, published 2024).
No constants are given. Whether binding was seen depends on the method and setting. Some entries that bind do so weakly or less than the wild type.

Protein sequences, listed by entry. Tags and fused reporters are not part of them. Lines headed by an entry give the natural chain unless they say otherwise; changes in a name come on top.
UniProt P43406: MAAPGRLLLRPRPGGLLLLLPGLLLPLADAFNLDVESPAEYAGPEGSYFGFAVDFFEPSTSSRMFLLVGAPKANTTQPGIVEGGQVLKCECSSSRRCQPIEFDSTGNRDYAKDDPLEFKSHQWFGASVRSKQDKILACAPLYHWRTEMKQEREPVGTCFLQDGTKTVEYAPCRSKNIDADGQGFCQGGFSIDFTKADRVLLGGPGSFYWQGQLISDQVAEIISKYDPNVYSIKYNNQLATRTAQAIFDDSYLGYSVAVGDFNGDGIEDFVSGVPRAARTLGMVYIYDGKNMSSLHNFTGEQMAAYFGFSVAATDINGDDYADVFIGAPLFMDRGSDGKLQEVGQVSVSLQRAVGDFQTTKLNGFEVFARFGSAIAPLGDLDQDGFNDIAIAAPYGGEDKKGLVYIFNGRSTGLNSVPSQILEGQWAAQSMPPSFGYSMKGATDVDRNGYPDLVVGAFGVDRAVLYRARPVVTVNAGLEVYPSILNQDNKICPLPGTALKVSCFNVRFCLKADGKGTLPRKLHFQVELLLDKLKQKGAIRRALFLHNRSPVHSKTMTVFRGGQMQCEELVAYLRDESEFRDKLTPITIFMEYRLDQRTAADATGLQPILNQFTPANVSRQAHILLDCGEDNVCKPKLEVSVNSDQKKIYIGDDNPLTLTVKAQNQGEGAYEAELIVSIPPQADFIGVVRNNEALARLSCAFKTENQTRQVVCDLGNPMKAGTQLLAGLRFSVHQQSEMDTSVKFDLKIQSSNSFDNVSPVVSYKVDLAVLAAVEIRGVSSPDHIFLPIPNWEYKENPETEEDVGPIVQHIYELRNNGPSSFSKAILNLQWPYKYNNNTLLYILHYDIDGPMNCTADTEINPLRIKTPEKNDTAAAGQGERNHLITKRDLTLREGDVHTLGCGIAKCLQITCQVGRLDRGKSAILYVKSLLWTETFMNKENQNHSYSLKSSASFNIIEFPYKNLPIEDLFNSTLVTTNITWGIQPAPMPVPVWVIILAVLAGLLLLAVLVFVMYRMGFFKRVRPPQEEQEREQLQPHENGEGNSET
UniProt Q0VBD0: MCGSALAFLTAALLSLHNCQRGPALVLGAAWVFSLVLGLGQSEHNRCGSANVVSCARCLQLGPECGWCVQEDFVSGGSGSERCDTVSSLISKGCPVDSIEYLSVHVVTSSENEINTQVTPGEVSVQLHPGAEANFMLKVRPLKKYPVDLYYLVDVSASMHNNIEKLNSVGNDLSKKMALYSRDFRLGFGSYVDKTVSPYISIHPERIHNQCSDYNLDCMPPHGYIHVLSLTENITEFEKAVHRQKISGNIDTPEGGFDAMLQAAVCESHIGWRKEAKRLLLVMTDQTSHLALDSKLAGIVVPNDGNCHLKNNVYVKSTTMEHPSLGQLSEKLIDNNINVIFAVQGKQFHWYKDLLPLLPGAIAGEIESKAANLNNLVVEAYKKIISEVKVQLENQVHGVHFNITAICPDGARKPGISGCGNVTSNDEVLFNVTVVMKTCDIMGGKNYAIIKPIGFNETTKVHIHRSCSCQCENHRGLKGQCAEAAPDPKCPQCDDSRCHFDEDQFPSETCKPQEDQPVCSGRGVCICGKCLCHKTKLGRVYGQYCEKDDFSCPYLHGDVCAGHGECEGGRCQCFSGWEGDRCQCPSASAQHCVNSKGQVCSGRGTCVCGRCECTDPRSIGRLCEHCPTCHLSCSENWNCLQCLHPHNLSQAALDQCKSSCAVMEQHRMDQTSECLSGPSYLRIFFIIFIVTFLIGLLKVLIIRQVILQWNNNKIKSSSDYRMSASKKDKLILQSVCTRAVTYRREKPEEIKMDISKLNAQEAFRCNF
UniProt P06756: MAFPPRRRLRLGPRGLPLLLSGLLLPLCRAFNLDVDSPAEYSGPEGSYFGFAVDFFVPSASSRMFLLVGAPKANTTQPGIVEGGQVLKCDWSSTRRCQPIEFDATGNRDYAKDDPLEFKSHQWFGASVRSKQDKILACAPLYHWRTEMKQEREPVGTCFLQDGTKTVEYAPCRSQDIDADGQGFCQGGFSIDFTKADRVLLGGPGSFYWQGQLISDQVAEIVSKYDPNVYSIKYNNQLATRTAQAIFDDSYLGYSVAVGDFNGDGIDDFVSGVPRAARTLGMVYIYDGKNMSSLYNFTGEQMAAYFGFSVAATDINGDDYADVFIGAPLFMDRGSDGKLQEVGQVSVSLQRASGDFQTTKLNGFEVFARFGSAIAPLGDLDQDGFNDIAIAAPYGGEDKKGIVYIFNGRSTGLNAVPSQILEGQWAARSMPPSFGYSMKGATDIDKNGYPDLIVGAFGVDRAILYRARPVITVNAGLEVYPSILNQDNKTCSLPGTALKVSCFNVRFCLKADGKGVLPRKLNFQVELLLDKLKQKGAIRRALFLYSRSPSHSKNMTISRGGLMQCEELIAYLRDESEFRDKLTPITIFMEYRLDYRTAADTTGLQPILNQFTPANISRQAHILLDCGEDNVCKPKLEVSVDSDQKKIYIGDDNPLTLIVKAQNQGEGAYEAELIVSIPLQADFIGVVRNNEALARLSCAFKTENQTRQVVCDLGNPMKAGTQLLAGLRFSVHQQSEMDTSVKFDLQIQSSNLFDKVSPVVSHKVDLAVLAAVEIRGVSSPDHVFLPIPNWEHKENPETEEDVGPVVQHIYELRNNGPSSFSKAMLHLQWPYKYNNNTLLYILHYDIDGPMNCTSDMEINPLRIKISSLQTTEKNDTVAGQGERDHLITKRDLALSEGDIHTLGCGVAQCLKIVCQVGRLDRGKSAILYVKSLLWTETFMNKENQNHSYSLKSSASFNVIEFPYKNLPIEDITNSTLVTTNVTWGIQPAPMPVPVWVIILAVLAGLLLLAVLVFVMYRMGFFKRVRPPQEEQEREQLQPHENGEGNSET
UniProt A0A0G2JVU1: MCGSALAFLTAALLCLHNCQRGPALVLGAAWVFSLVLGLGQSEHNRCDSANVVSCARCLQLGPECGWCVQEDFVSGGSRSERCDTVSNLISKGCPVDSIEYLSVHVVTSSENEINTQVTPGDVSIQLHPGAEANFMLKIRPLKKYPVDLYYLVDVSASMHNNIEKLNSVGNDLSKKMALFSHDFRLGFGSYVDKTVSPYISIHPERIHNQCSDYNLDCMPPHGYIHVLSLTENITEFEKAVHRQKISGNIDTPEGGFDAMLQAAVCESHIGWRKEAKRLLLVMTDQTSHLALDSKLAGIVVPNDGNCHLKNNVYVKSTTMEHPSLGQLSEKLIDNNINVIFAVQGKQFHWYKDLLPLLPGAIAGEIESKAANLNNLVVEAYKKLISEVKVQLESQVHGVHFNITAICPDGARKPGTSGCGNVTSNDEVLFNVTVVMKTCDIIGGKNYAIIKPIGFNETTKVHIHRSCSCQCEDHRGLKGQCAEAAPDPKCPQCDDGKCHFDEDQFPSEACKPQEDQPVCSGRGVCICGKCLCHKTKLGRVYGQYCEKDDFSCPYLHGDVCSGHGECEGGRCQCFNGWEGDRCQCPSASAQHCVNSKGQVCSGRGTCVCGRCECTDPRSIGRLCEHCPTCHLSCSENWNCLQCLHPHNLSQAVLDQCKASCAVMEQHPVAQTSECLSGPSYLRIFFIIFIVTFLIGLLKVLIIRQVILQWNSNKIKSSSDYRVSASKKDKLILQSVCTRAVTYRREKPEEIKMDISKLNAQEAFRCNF

Key:
[1] = biological target: T1, recombinant mouse αvβ8 protein (PARS-17103) (murine) (UniProt P43406+Q0VBD0); test: SPR
[2] = biological target: recombinant human αvβ8 (cryo-EM construct) (human) (UniProt P06756); test: size exclusion chromatography; cryo-EM
[3] = biological target: recombinant cynomolgus monkey αvβ8 protein (PARS-19393) (cynomolgus monkey); test: SPR
[4] = biological target: recombinant rat αvβ8 protein (PARS-22180) (rat) (UniProt F1LZX9+A0A0G2JVU1); test: SPR, Biacore T200, Protein A capture
[5] = biological target: recombinant cynomolgus monkey αvβ8 protein (PARS-19393) (cynomolgus monkey); test: SPR, Biacore T200, Protein A capture
[6] = biological target: T1, recombinant mouse αvβ8 protein (PARS-17103) (murine); test: SPR, Biacore T200, Protein A capture

B1: Rb.aVb8-65 (antibody, V domains shown)
VH: QSVEESGGRLVTPGTPLTLTCTVSGIDLSNYAMIWVRQAPGKGLEWIGIISSSDRIWYASWVKGRFTISKTSSTTVDLQMTSLTTEDTATYFCSRSVSNSYFDGWNLWGPGTLVTVSS
VL: DIVMTQTPASVEAAVGGTVTIKCQASENINSLLAWYQQKPGQPPKLLIYRASTLASGVPSRFRGSGSGTQFTLTISDLECDDAATYYCQSNYGFTGSGAFFYGFGGGTEVVVE
notes: Recombinant rabbit monoclonal antibody expressed in Expi293 cells; also called rb.αvβ8-65; rabbit αvβ8-65
B1 was tested, and the binding [1] was “binds”.

B2: Rb.aVb8-92 (antibody, V domains shown)
VH: QSVEESGGRLVTPGTPLTLTCTVSGFSLSSYAMGWVRQAPGKGLEWIGVIRKDDNTYYGNWAKGRFTISRTSTTVDLKMTSLTAADTATYFCARALNTYVGFPYFNIWGPGTLVTVSS
VL: AAVLTQTPSPVSAAVGGTVSISCQSIKSVGDNKWLAWYQQKPGQPPKLLIYDASDLASGVPSRFKGSGSRTQFTLTISDLQCDDAATYYCAGSVSSGDSGFGGGTEVVVA
notes: Recombinant rabbit monoclonal antibody expressed in Expi293 cells; also called rb.αvβ8-92; rabbit αvβ8-92
With B2 the binding [1] was “binds”.

B3: FAB 65 (anti-ITGB8.αvβ8-65) (Fab, V domains shown)
VH: QSVEESGGRLVTPGTPLTLTCTVSGIDLSNYAMIWVRQAPGKGLEWIGIISSSDRIWYASWVKGRFTISKTSSTTVDLQMTSLTTEDTATYFCSRSVSNSYFDGWNLWGPGTLVTVSS
VL: DIVMTQTPASVEAAVGGTVTIKCQASENINSLLAWYQQKPGQPPKLLIYRASTLASGVPSRFRGSGSGTQFTLTISDLECDDAATYYCQSNYGFTGSGAFFYGFGGGTEVVVE
In the case of B3, the binding [2] is reported as “binds”.

B4: Hu.aVb8-65.H15L2 (aVb8-65.H15L2.hIgG1.LALAPG) (antibody, V domains shown)
VH: EVQLLESGGGLVQPGGSLRLSCAASGIDLSNYAMIWVRQAPGKGLEWVGIISSSDRIWYASWVKGRFTISRDNSKNTLYLQMNSLRAEDTAVYYCSRSVSNSYFDGWNLWGQGTLVTVSS
VL: DIQMTQSPSSVSASVGDRVTITCQASENINSLLAWYQQKPGKAPKLLIYRASTLASGVPSRFSGSGSGTDFTLTISSLQPEDFATYYCQSNYGFTGSGAFFYGFGQGTKVEIKR
notes: Human IgG1 LALAPG; also called PARS-20475-65 (IH) aVb8-65.H15L2.hIgG1.LALAPG; humanized αvβ8-65
B4 was tested, and the binding [3] was “binds”, the binding [1] was “binds” and the binding [4] was “binds”. For the same binder, the binding [5] was “binds” and the binding [6] was “binds”.

B5: Hu.aVb8-92.H13L1 (aVb8-92.H13L1.hIgG1.LALAPG) (antibody, V domains shown)
VH: EQQLLESGGGLVQPGGSLRLSCAASGFSLSSYAMGWVRQAPGKGLEWIGVIRKDDNTYYGNWAKGRFTISRDSSKNTLYLQMNSLRAEDTAVYFCARALNTYVGFPYFNIWGPGTLVTVSS
VL: DAVLTQSPDSLAVSLGERATINCQSIKSVGDNKWLAWYQQKPGQPPKLLIYDASDLASGVPDRFSGSGSRTDFTLTISSLQAEDVAVYYCAGSVSSGDSGFGGGTKVEIKR
notes: Human IgG1 LALAPG; also called PARS-20463-65 (IH) aVb8-92.H13L1.hIgG1.LALAPG; humanized αvβ8-92
B5 was tested, and the binding [3] was “binds” and the binding [1] was “binds”.
